Laboratory results taken from US20060223116A1.
These are yes or no findings as the source states them, for the method shown. For some assays here: Binding can be weak; no strength is given. For some assays here: Binding seen in cells or lysates may run through a third protein.

What was measured:
c-Maf = assay: co-IP after coexpression in 293T cells, 4B10 blot
NFATc2 = assay: co-IP after coexpression in 293T cells, 4B10 blot
FLAG-tagged GATA-3 [1] = assay: coexpression of FLAG-tagged GATA-3 and T-bet in 293T cells, anti-FLAG agarose IP, 4B10 blot
FLAG-tagged GATA-3 [2] = assay: overexpression co-IP

| Binder | binding (c-Maf) | binding (NFATc2) | binding (FLAG-tagged GATA-3 [1]) | binding (FLAG-tagged GATA-3 [2]) |
| --- | --- | --- | --- | --- |
| T-bet, wild type (expressed from cDNA in 293T or EL4 cells, or from the retrovirus RV-T-bet) (protein, UniProt Q9JKD8 1-530, looked up) MGIVEPGCGDMLTGTEPMPSDEGRGPGADQQHRFFYPEPGAQDPTDRRAGSSLGTPYSGGALVPAAPGRFLGSFAYPPRAQVAGFPGPGEFFPPPAGAEGYPPVDGYPAPDPRAGLYPGPREDYALPAGLEVSGKLRVALSNHLLWSKFNQHQTEMIITKQGRRMFPFLSFTVAGLEPTSHYRMFVDVVLVDQHHWRYQSGKWVQCGKAEGSMPGNRLYVHPDSPNTGAHWMRQEVSFGKLKLTNNKGASNNVTQMIVLQSLHKYQPRLHIVEVNDGEPEAACSASNTHVFTFQETQFIAVTAYQNAEITQLKIDNNPFAKGFRENFESMYASVDTSVPSPPGPNCQLLGGDPFSPLLSNQYPVPSRFYPDLPGQPKDMISQPYWLGTPREHSYEAEFRAVSMKPTLLPSAPGPTVPYYRGQDVLAPGAGWPVAPQYPPKMSPAGWFRPMRTLPMDPGLGSSEEQGSSPSLWPEVTSLQPEPSDSGLGEGDTKRRRISPYPSSGDSSSPAGAPSPFDKETEGQFYNYFPN | no binding | no binding | binds | binds |
| T-bet Y525F mutant (protein, UniProt Q9JKD8 1-530, looked up) MGIVEPGCGDMLTGTEPMPSDEGRGPGADQQHRFFYPEPGAQDPTDRRAGSSLGTPYSGGALVPAAPGRFLGSFAYPPRAQVAGFPGPGEFFPPPAGAEGYPPVDGYPAPDPRAGLYPGPREDYALPAGLEVSGKLRVALSNHLLWSKFNQHQTEMIITKQGRRMFPFLSFTVAGLEPTSHYRMFVDVVLVDQHHWRYQSGKWVQCGKAEGSMPGNRLYVHPDSPNTGAHWMRQEVSFGKLKLTNNKGASNNVTQMIVLQSLHKYQPRLHIVEVNDGEPEAACSASNTHVFTFQETQFIAVTAYQNAEITQLKIDNNPFAKGFRENFESMYASVDTSVPSPPGPNCQLLGGDPFSPLLSNQYPVPSRFYPDLPGQPKDMISQPYWLGTPREHSYEAEFRAVSMKPTLLPSAPGPTVPYYRGQDVLAPGAGWPVAPQYPPKMSPAGWFRPMRTLPMDPGLGSSEEQGSSPSLWPEVTSLQPEPSDSGLGEGDTKRRRISPYPSSGDSSSPAGAPSPFDKETEGQFFNYFPN |  |  | binds |  |
